Laboratory results: patent US12378320B2, “Methods for treating pancreatitis” (Cold Spring Harbor Laboratory, priority 2018, dated 2025)

Test system: CA19-9 modified proteins
Experiment: CA19-9 IP/MS (iTRAQ) of organoid conditioned media after Dox treatment
Set-up: species or system mouse
Details: CA19-9 IP/MS relative abundance; for 17 0H NS19 / 17 8H 5B1 / 17 8H NS19: A217 (genetic negative) organoid conditioned media; for 17 0H NS19 / 20 0H 5B1: 0H (before treatment); for 17 0H NS19 / 17 8H NS19: IP with NS19-9; for 17 0H NS19: reference channel = 1; for 17 8H 5B1 / 17 8H NS19: after 8 hours; for 17 8H 5B1 / 20 0H 5B1: IP with 5B1; for 20 0H 5B1: A220 (C;R^LSL;F) organoid conditioned media

| Molecule | 17 0H NS19 | 17 8H 5B1 | 17 8H NS19 | 20 0H 5B1 |
| --- | --- | --- | --- | --- |
| P47738 (protein, UniProt P47738 1-519, looked up, full-length) MLRAALTTVRRGPRLSRLLSAAATSAVPAPNHQPEVFCNQIFINNEWHDAVSRKTFPTVNPSTGEVICQVAEGNKEDVDKAVKAARAAFQLGSPWRRMDASDRGRLLYRLADLIERDRTYLAALETLDNGKPYVISYLVDLDMVLKCLRYYAGWADKYHGKTIPIDGDFFSYTRHEPVGVCGQIIPWNFPLLMQAWKLGPALATGNVVVMKVAEQTPLTALYVANLIKEAGFPPGVVNIVPGFGPTAGAAIASHEGVDKVAFTGSTEVGHLIQVAAGSSNLKRVTLELGGKSPNIIMSDADMDWAVEQAHFALFFNQGQCCCAGSRTFVQENVYDEFVERSVARAKSRVVGNPFDSRTEQGPQVDETQFKKILGYIKSGQQEGAKLLCGGGAAADRGYFIQPTVFGDVKDGMTIAKEEIFGPVMQILKFKTIEEVVGRANDSKYGLAAAVFTKDLDKANYLSQALQAGTVWINCYDVFGAQSPFGGYKMSGSGRELGEYGLQAYTEVKTVTVKVPQKNS | 1 | 2.783 | 0.665 | 2.399 |
| Q61753 (protein, UniProt Q61753 1-533, looked up, full-length) MAFANLRKVLISDSLDPCCRKILQDGGLQVVEKQNLSKEELIAELQDCEGLIVRSATKVTADVINAAEKLQVVGRAGTGVDNVDLEAATRKGILVMNTPNGNSLSAAELTCGMIMCLARQIPQATASMKDGKWDRKKFMGTELNGKTLGILGLGRIGREVATRMQSFGMKTVGYDPIISPEVAASFGVQQLPLEEIWPLCDFITVHTPLLPSTTGLLNDSTFAQCKKGVRVVNCARGGIVDEGALLRALQSGQCAGAALDVFTEEPPRDRALVDHENVISCPHLGASTKEAQSRCGEEIAVQFVDMVKGKSLTGVVNAQALTSAFSPHTKPWIGLAEAMGTLMHAWAGSPKGTIQVVTQGTSLKNAGTCLSPAVIVGLLREASKQADVNLVNAKLLVKEAGLNVTTSHNPGVPGEQGSGECLLTVALAGAPYQAVGLVQGTTPMLQMLNGAVFRPEVPLRRGQPLLVFRAQPSDPGMLPTMIGLLAEAGVQLLSYQTSMVSDGEPWHVMGLSSLLPSLETWKQHVLEAFQFCF | 1 | 3.794 | 0.617 | 3.294 |
| Q9DBJ1 (protein, UniProt Q9DBJ1 1-254, looked up, full-length) MAAYKLVLIRHGESAWNLENRFSGWYDADLSPAGHEEAKRGGQALRDAGYEFDICFTSVQKRAIRTLWTVLDAIDQMWLPVVRTWRLNERHYGGLTGLNKAETAAKHGEAQVKIWRRSYDVPPPPMEPDHPFYSNISKDRRYADLTEDQLPSCESLKDTIARALPFWNEEIVPQIKEGKRVLIAAHGNSLRGIVKHLEGLSEEAIMELNLPTGIPIVYELDKNLKPIKPMQFLGDEETVRKAMEAVAAQGKVKK | 1 | 2.747 | 0.714 | 2.313 |
| Q00623 (protein, UniProt Q00623 1-264, looked up, full-length) MKAVVLAVALVFLTGSQAWHVWQQDEPQSQWDKVKDFANVYVDAVKDSGRDYVSQFESSSLGQQLNLNLLENWDTLGSTVSQLQERLGPLTRDFWDNLEKETDWVRQEMNKDLEEVKQKVQPYLDEFQKKWKEDVELYRQKVAPLGAELQESARQKLQELQGRLSPVAEEFRDRMRTHVDSLRTQLAPHSEQMRESLAQRLAELKSNPTLNEYHTRAKTHLKTLGEKARPALEDLRHSLMPMLETLKTQVQSVIDKASETLTAQ | 1 | 11.86 | 0.86 | 8.414 |
| P09411 (protein, UniProt P09411 1-417, looked up, full-length) MSLSNKLTLDKLDVKGKRVVMRVDFNVPMKNNQITNNQRIKAAVPSIKFCLDNGAKSVVLMSHLGRPDGVPMPDKYSLEPVAAELKSLLGKDVLFLKDCVGPEVENACANPAAGTVILLENLRFHVEEEGKGKDASGNKVKAEPAKIDAFRASLSKLGDVYVNDAFGTAHRAHSSMVGVNLPQKAGGFLMKKELNYFAKALESPERPFLAILGGAKVADKIQLINNMLDKVNEMIIGGGMAFTFLKVLNNMEIGTSLYDEEGAKIVKDLMSKAEKNGVKITLPVDFVTADKFDENAKTGQATVASGIPAGWMGLDCGTESSKKYAEAVGRAKQIVWNGPVGVFEWEAFARGTKSLMDEVVKATSRGCITIIGGGDTATCCAKWNTEDKVSHVSTGGGASLELLEGKVLPGVDALSNV | 1 | 3.461 | 0.798 | 2.25 |
| P10493 (protein, UniProt P10493 1-1245, looked up, full-length) MLDASGCSWAMWTWALLQLLLLVGPGGCLNRQELFPFGPGQGDLELEAGDDVVSPSLELIGELSFYDRTDITSVYVTTNGIIAMSEPPATEYHPGTFPPSFGSVAPFLADLDTTDGLGNVYYREDLSPFIIQMAAEYVQRGFPEVSFQPTSVVVVTWESVAPYGGPSSSPAEEGKRNTFQAVLASSNSSSYAIFLYPEDGLQFFTTFSKKDESQVPAVVGFSKGLVGFLWKSNGAYNIFANDRESIENLAKSSNAGHQGVWVFEIGSPATAKGVVSADVNLDLDDDGADYEDEDYDLVTSHLGLEDVATPSPSHSPRRGYPDPHNVPRILSPGYEATERPRGVPTERTRSFQLPAERFPQHHPQVIDVDEVEETGVVFSYNTGSQQTCANNRHQCSVHAECRDYATGFCCRCVANYTGNGRQCVAEGSPQRVNGKVKGRIFVGSSQVPVVFENTDLHSYVVMNHGRSYTAISTIPETVGYSLLPLAPIGGIIGWMFAVEQDGFKNGFSITGGEFTRQAEVTFLGHPGKLVLKQQFSGIDEHGHLTISTELEGRVPQIPYGASVHIEPYTELYHYSSSVITSSSTREYTVMEPDQDGAAPSHTHIYQWRQTITFQECAHDDARPALPSTQQLSVDSVFVLYNKEERILRYALSNSIGPVRDGSPDALQNPCYIGTHGCDSNAACRPGPGTQFTCECSIGFRGDGQTCYDIDECSEQPSRCGNHAVCNNLPGTFRCECVEGYHFSDRGTCVAAEDQRPINYCETGLHNCDIPQRAQCIYMGGSSYTCSCLPGFSGDGRACRDVDECQHSRCHPDAFCYNTPGSFTCQCKPGYQGDGFRCMPGEVSKTRCQLEREHILGAAGGADAQRPTLQGMFVPQCDEYGHYVPTQCHHSTGYCWCVDRDGRELEGSRTPPGMRPPCLSTVAPPIHQGPVVPTAVIPLPPGTHLLFAQTGKIERLPLERNTMKKTEAKAFLHIPAKVIIGLAFDCVDKVVYWTDISEPSIGRASLHGGEPTTIIRQDLGSPEGIALDHLGRTIFWTDSQLDRIEVAKMDGTQRRVLFDTGLVNPRGIVTDPVRGNLYWTDWNRDNPKIETSHMDGTNRRILAQDNLGLPNGLTFDAFSSQLCWVDAGTHRAECLNPAQPGRRKVLEGLQYPFAVTSYGKNLYYTDWKTNSVIAMDLAISKEMDTFHPHKQTRLYGITIALSQCPQGHNYCSVNNGGCTHLCLPTPGSRTCRCPDNTLGVDCIERK | 1 | 2.984 | 0.472 | 2.449 |
| Q8C196 (protein, UniProt Q8C196 1-1500, looked up, full-length) MTRILTACKVVKTLKSGFGFANVTTKRQWDFSRPGIRLLSVKAKTAHIVLEDGTKMKGYSFGHPSSVAGEVVFNTGLGGYPEALTDPAYKGQILTMANPIIGNGGAPDTTARDELGLNKYMESDGIKVAGLLVLNYSNDYNHWLATKSLGQWLQEEKVPAIYGVDTRMLTKIIRDKGTMLGKIEFEGQSVDFVDPNKQNLIAEVSTKDVKVFGKGNPTKVVAVDCGIKNNVIRLLVKRGAEVHLVPWNHDFTQMEYDGLLIAGGPGNPALAQPLIQNVKKILESDRKEPLFGISTGNIITGLAAGAKSYKMSMANRGQNQPVLNITNRQAFITAQNHGYALDNTLPAGWKPLFVNVNDQTNEGIMHESKPFFAVQFHPEVSPGPTDTEYLFDSFFSLIKKGKGTTITSVLPKPALVASRVEVSKVLILGSGGLSIGQAGEFDYSGSQAVKAMKEENVKTVLMNPNIASVQTNEVGLKQADAVYFLPITPQFVTEVIKAERPDGLILGMGGQTALNCGVELFKRGVLKEYGVKVLGTSVESIMATEDRQLFSDKLNEINEKIAPSFAVESMEDALKAADTIGYPVMIRSAYALGGLGSGICPNKETLIDLGTKAFAMTNQILVERSVTGWKEIEYEVVRDADDNCVTVCNMENVDAMGVHTGDSVVVAPAQTLSNAEFQMLRRTSVNVVRHLGIVGECNIQFALHPTSMEYCIIEVNARLSRSSALASKATGYPLAFIAAKIALGIPLPEIKNVVSGKTSACFEPSLDYMVTKIPRWDLDRFHGTSSRIGSSMKSVGEVMAIGRTFEESFQKALRMCHPSVDGFTPRLPMNKEWPANLDLKKELSEPSSTRIYAIAKALENNMSLDEIVRLTSIDKWFLYKMRDILNMDKTLKGLNSDSVTEETLRKAKEIGFSDKQISKCLGLTEAQTRELRLKKNIHPWVKQIDTLAAEYPSVTNYLYVTYNGQEHDIKFDEHGIMVLGCGPYHIGSSVEFDWCAVSSIRTLRQLGKKTVVVNCNPETVSTDFDECDKLYFEELSLERILDIYHQEACNGCIISVGGQIPNNLAVPLYKNGVKIMGTSPLQIDRAEDRSIFSAVLDELKVAQAPWKAVNTLNEALEFANSVGYPCLLRPSYVLSGSAMNVVFSEDEMKRFLEEATRVSQEHPVVLTKFVEGAREVEMDAVGKEGRVISHAISEHVEDAGVHSGDATLMLPTQTISQGAIEKVKDATRKIAKAFAISGPFNVQFLVKGNDVLVIECNLRASRSFPFVSKTLGVDFIDVATKVMIGESIDEKRLPTLEQPIIPSDYVAIKAPMFSWPRLRDADPILRCEMASTGEVACFGEGIHTAFLKAMLSTGFKIPQKGILIGIQQSFRPRFLGVAEQLHNEGFKLFATEATSDWLNANNVPATPVAWPSQEGQNPSLSSIRKLIRDGSIDLVINLPNNNTKFVHDNYVIRRTAVDSGIALLTNFQVTKLFAEAVQKSRTVDSKSLFHYRQYSAGKAA | 1 | 3.227 | 0.633 | 2.679 |
| P80313 (protein, UniProt P80313 1-544, looked up, full-length) MMPTPVILLKEGTDSSQGIPQLVSNISACQVIAEAVRTTLGPRGMDKLIVDGRGKATISNDGATILKLLDVVHPAAKTLVDIAKSQDAEVGDGTTSVTLLAAEFLKQVKPYVEEGLHPQIIIRAFRTATQLAVNKIKEIAVTVKKQDKVEQRKMLEKCAMTALSSKLISQQKVFFAKMVVDAVMMLDELLQLKMIGIKKVQGGALEESQLVAGVAFKKTFSYAGFEMQPKKYKNPKIALLNVELELKAEKDNAEIRVHTVEDYQAIVDAEWNILYDKLEKIHQSGAKVILSKLPIGDVATQYFADRDMFCAGRVPEEDLKRTMMACGGSIQTSVNALVPDVLGHCQVFEETQIGGERYNFFTGCPKAKTCTIILRGGAEQFMEETERSLHDAIMIVRRAIKNDSVVAGGGAIEMELSKYLRDYSRTIPGKQQLLIGAYAKALEIIPRQLCDNAGFDATNILNKLRARHAQGGMWYGVDINNENIADNFQAFVWEPAMVRINALTAASEAACLIVSVDETIKNPRSTVDPPAPSAGRGRGQARFH | 1 | 2.089 | 0.704 | 1.829 |
